Results are given in words; binding and its absence hold for the method and conditions named. Binding seen in cells or lysates may run through a third protein. Some results given as binding are weak or reduced against the parent protein; the word gives no strength. For part of these data: Where a sequence is shown, tags or fusion partners need not be part of it.

By UniProt entry, the sequences of proteins in these tests, tags left out. Where a name states a change or a piece, a line headed by the entry shows the natural chain unless it says otherwise. Residues count along the entry.
UniProt G3UZ78: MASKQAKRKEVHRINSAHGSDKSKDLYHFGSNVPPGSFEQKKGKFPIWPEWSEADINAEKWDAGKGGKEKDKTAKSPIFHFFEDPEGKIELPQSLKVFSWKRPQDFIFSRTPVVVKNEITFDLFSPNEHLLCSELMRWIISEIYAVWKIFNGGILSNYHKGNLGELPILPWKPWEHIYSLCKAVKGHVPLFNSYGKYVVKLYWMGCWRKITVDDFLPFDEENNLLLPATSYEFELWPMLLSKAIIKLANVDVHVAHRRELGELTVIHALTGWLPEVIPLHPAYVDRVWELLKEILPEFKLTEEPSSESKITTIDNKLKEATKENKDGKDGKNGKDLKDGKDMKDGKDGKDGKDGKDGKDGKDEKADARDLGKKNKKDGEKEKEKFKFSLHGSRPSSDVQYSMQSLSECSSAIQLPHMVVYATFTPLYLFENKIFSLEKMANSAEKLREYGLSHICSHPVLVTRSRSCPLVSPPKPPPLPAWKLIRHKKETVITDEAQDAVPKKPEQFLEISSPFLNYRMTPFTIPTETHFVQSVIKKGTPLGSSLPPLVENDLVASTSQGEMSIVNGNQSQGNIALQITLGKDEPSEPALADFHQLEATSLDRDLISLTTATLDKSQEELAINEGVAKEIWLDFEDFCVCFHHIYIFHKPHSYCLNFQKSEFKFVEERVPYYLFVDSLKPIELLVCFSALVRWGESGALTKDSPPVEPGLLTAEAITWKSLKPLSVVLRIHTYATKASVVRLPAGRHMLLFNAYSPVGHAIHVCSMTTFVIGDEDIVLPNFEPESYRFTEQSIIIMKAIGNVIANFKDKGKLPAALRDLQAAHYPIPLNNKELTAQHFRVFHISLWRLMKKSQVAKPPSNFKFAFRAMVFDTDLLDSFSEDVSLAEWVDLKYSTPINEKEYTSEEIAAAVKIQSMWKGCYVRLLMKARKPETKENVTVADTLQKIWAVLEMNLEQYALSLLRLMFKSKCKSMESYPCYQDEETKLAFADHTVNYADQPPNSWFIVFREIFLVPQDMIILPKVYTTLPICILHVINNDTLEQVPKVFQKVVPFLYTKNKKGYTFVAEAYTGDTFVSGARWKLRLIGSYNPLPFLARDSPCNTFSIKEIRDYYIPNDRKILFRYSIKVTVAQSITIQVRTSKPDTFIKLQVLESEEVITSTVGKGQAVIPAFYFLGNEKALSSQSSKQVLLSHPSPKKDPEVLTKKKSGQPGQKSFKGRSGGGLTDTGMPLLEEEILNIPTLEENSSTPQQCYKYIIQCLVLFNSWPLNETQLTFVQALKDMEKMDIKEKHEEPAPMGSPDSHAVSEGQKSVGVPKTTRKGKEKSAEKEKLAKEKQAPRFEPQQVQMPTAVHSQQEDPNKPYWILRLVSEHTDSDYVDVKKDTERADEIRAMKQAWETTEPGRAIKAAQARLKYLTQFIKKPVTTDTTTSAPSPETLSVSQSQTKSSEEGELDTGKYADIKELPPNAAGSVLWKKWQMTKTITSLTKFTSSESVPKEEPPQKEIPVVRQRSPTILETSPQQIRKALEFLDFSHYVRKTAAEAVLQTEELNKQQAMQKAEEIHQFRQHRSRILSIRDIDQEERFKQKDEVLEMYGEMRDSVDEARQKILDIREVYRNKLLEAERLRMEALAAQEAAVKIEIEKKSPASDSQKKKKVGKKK
UniProt Q8N7X0: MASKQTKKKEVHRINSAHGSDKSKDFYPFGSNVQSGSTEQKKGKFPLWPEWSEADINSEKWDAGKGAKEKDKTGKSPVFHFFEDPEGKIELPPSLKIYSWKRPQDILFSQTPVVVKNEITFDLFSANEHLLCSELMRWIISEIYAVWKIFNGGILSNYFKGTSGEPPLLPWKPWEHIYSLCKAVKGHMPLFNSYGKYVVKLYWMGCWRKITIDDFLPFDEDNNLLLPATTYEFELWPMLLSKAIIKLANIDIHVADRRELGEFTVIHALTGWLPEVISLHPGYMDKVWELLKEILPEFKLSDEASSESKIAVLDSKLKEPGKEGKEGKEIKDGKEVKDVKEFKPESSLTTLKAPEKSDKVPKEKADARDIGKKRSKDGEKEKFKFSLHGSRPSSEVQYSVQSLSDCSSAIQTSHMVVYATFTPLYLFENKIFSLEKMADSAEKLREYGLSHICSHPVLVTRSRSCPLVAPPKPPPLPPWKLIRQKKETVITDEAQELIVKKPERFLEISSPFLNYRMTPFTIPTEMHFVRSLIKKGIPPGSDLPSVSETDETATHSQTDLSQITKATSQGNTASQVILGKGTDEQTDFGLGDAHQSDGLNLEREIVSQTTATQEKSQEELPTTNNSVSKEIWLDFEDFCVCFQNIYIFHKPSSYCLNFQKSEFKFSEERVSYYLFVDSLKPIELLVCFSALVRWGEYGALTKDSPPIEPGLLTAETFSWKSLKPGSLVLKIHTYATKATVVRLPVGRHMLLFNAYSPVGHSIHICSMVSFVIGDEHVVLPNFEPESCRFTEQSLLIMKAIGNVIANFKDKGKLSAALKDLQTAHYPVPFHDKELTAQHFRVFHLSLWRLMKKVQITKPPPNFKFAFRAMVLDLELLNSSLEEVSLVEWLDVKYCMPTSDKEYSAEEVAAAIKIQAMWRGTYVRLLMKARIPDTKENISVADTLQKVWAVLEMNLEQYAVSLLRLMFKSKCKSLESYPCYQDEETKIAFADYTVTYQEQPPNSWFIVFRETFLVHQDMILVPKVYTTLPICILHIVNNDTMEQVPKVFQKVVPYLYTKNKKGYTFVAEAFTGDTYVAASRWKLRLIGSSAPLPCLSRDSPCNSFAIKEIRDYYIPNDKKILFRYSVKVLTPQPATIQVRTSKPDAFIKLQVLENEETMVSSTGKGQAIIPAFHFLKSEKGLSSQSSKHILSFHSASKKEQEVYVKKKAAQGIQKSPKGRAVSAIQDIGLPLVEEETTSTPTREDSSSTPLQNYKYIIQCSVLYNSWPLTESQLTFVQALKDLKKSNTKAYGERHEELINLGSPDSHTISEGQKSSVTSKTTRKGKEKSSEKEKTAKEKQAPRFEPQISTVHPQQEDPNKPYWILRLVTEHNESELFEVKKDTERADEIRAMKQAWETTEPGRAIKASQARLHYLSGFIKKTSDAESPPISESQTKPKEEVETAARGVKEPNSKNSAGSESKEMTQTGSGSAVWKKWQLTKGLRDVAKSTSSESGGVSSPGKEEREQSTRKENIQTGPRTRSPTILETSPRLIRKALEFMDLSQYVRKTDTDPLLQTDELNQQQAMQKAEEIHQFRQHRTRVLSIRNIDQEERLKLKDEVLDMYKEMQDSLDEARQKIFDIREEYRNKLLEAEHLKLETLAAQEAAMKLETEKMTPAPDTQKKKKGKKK
N-terminal mutant ADGB: residues 58-968 of Q8N7X0
C-terminal mutant ADGB: residues 969-1667 of Q8N7X0

The target of test [1] is androglobin (Adgb) (mouse (endogenous in testis)) (UniProt G3UZ78). Put plainly: co-IP; reciprocal co-IP from testis lysates of wild-type and Adgb knockout mice (2 mg protein), protein G-sepharose, immunoblot. For orientation: Immunoblotting shows a protein as a band on a membrane.
Test [2] deals with T1, C-terminally V5-tagged SEPT10 (UniProt Q9P0V9).
T1 sequence: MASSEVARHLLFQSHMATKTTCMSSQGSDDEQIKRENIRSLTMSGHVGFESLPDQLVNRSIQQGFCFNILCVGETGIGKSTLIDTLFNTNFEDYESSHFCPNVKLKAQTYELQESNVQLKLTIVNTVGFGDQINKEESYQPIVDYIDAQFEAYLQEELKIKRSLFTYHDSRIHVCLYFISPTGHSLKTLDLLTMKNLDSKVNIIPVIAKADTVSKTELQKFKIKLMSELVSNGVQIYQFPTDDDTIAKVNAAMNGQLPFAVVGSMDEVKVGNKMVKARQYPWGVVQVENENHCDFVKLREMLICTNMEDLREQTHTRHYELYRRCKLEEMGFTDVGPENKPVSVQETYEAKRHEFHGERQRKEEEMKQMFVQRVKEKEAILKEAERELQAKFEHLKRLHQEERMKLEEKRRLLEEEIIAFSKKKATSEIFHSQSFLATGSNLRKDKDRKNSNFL
The test is described as follows: co-IP; lysates (1% triton buffer) of HEK293 cells (co-)transfected with the two constructs, IP by antibody to the protein or its tag (FLAG, V5, GFP), immunoblot; for GFP-Globin and V5-CaM also after heme depletion (heme-depleted FBS, 3 mM succinylacetone, 24 hr).

For the next test, the target named is full-length ADGB (UniProt Q8N7X0). The test is described as above.
The target of a further test is C-terminal mutant ADGB (UniProt Q8N7X0). The test is described as above.
A further test deals with N-terminal mutant ADGB (UniProt Q8N7X0). The description is as above.

B1: septin 10 (Sept10) (protein, UniProt Q8C650 1-452)
chain: MASCDEIKEHPRSLSMCGHVGFESLPDQLVDRSIEQGFCFNILCVGETGIGKSTLINTLFNTNFEELESSHFCPCVRLRAQTYELQESNVRLKLTIVNTVGFGDQINKEDSYQPIVDYIDDQFEAYLQEEVKIKRALFNYHDSRIHVCLYFIAPTGHSLRTLDLLTMKSLDNKVNIIPLIAKADTISKSELQKFKMKLMNELVINGVQIYQFPTDDDTTSKINGAMNGHLPFAVVGSMDEIKVGNKMVKGRQYPWGIVQVENENHCDFVKLREMLICTNMEDLREQTHMRHYELYRRCKLQEMGFVDMGPENKPLSLQETYEAKRHEFYGERQRKEEQMKQMFVQRVKEKEAILKEAERELQAKFEHLKRIHQEERMKLEEKRRMLEEESVAFAKKKATCELFPNQSFLASGSSIRKDKDRKKADGASAFCDCLTAQESVRLCISSPRKDMD
Take B1: the binding entry in test [1] is reported as “binds”.

B2: FLAG-SEPT7 (protein, UniProt Q16181 1-437)
chain: MSVSARSAAAEERSVNSSTMVAQQKNLEGYVGFANLPNQVYRKSVKRGFEFTLMVVGESGLGKSTLINSLFLTDLYSPEYPGPSHRIKKTVQVEQSKVLIKEGGVQLLLTIVDTPGFGDAVDNSNCWQPVIDYIDSKFEDYLNAESRVNRRQMPDNRVQCCLYFIAPSGHGLKPLDIEFMKRLHEKVNIIPLIAKADTLTPEECQQFKKQIMKEIQEHKIKIYEFPETDDEEENKLVKKIKDRLPLAVVGSNTIIEVNGKRVRGRQYPWGVAEVENGEHCDFTILRNMLIRTHMQDLKDVTNNVHYENYRSRKLAAVTYNGVDNNKNKGQLTKSPLAQMEEERREHVAKMKKMEMEMEQVFEMKVKEKVQKLKDSEAELQRRHEQMKKNLEAQHKELEEKRRQFEDEKANWEAQQRILEQQNSSRTLEKNKKKGKIF
On to B2, for which, in test [2], the binding entry is on record as “binds”.

B3: C-terminally V5-tagged SEPT10 (protein, UniProt Q9P0V9 1-454)
chain: T1 sequence
B3: the binding entry with full-length ADGB is listed as “binds”.

B4: SEPT10 (protein, UniProt Q9P0V9 1-454)
chain: T1 sequence
On to B4, for which the binding entry in the test with full-length ADGB, with C-terminal mutant ADGB and with N-terminal mutant ADGB was “binds” each time.

(Values after article PMC9249397.)
